# Primary screen of a compound library

Chains of the proteins cited; added tags and fusions are not shown.
UniProt E9BF75, entry or part of it: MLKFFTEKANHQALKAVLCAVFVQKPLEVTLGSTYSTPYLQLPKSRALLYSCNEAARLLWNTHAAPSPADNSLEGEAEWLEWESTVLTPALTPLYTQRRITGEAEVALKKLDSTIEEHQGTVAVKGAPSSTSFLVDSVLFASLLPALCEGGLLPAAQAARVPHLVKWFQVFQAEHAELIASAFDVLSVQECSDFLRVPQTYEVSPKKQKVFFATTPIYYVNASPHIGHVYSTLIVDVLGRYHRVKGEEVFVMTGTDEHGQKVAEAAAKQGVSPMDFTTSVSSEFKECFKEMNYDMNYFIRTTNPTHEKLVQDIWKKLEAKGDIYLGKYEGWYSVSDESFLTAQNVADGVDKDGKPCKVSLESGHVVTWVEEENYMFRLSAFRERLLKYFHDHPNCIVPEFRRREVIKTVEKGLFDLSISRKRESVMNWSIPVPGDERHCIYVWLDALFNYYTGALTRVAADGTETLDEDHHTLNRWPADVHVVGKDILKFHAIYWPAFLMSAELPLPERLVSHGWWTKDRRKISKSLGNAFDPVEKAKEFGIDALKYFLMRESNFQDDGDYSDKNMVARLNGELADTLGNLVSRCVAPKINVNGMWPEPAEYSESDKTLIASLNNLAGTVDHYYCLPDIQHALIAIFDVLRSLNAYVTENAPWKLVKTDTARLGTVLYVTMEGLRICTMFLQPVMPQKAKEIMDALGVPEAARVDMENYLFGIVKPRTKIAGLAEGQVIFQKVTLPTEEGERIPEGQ

The values are deposited in ChEMBL (CHEMBL3988442, “University of Dundee, Small-Polar-MMV Screening Library” (2021)).

A: 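Methionyl-tRNA synthetase (putative), Leishmania donovani (UniProt E9BF75). Primary screen of methionyl-tRNA synthetase; the read-out is not stated. The test concentration is not given. The values are filed as inhibition. Size under these conditions: about 68,000 compounds, about 24 of them at 50% or above in at least one test.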
B: 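Assay on Mycobacterium tuberculosis, filed only as a heat shock assay from Cornell; the read-out is not stated. The concentration is filed as 10 mM, unlikely as a test dose, so the dose is not known. The record gives no direction; compounds that gave an IC50 in retests scored well above the rest, so higher reads as stronger inhibition. About 69,000 compounds were tested under these conditions; 1.4% (about 930) showed 50% or more at least once.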

Results are percentages, as filed.
The record does not define 0% and 100%; most values in the screen are far below 50% and negative numbers occur (in some assays of this library far below -100).
This is an unselected part of the compounds tested.
A dash means the value is not listed here; it may have been measured.

Compound,A,B
N#Cc1ccsc1N1CCC(Sc2ccncc2)C1=O (stereo not drawn),21.5%,7.062%
CNc1snc(C)c1C(=O)N1CCCC(n2cc(C)cn2)C1 (stereo not drawn),11.27%,0.9167%
O=C(NCC1CCCO1)c1nc2c(s1)CCCN2CC1CC1 (stereo not drawn),12.88%,-7.66%
OC1CCN(Cc2cc3c(cc2Br)OCCO3)CC1,12.39%,16.59%
Cc1nc(N2CCCC2C(=O)NC(C)(C)CO)nc2ccccc12 (stereo not drawn),1.818%,-16.37%
COc1cc(CO)c(OC)c2c1OCO2,4.416%,11.07%
CN(CCCOc1ccc(F)cc1)Cc1nc2c(cnn2C)c(=O)[nH]1,13.39%,-21.36%
[H][C@@]12CCN(C(=O)C3CC(F)(F)C3)C[C@]1(COCC1CC1)CCO2,-,-8.608%
NC(=O)NC(=O)C(c1ccccc1)N1CCN(Cc2ccsc2)CC1 (stereo not drawn),13.15%,-18.92%
O=C(Cc1ccc2c(c1)OCO2)N[C@@H]1CCNC[C@H]1O,5.108%,17.11%
Cc1ccc(NC2CCN(C(=O)c3cnn(C(C)(C)C)c3)CC2)nn1,11.93%,3.315%
Cc1cc(C(F)(F)F)nn1C(C)C(=O)Nc1ccncc1 (stereo not drawn),2.905%,-15.22%
CC(Cn1cccn1)NCc1nc(-c2ccccc2Cl)no1 (stereo not drawn),16%,1.662%
O=C(NCCCc1nc(=O)[nH][nH]1)Nc1cccc(F)c1,19.09%,5.413%
CCn1cc(NC(=O)c2cccc(CN3C[C@@H](C)O[C@@H](C)C3)c2)nn1,9.422%,87.48%
CN(CCc1ccccn1)C(=O)Cn1cc(-c2ccccc2)nn1,13.13%,-23.54%
O=C(CCn1ccccc1=O)Nc1ccc(C(=O)O)cc1,13.51%,-7.856%
CNC(=O)CN1CCOCC12CCN(C(=O)c1ccccc1)CC2.O=C(O)C(F)(F)F,-,-17.78%
CN(C)C(=O)CN1C[C@@H]2CC[C@H](C1)N(C(=O)CCCn1cncn1)C2,5.694%,-
O=C(c1cnccn1)N1CCCC2(CCN(c3ncccn3)C2)C1 (stereo not drawn),5.625%,-
COc1ccc(-c2n[nH]c(C)c2CC(=O)N2CCOCC2)cc1,13.35%,-0.9627%
O=C(O)C(F)(F)F.O=C(O)C(F)(F)F.[H][C@@]12OCCN(Cc3cc(C)on3)[C@@]1([H])CC[C@H]2OCc1csc(C)n1,-,-10.4%
CCc1nn(C)c2[nH]nc(NC(=O)c3cccnc3OCC(C)C)c12,18.56%,10.58%
O=C(O)C1c2nc[nH]c2CCN1CC(c1ccccc1)c1ccccc1 (stereo not drawn),25.65%,6.062%
CCCNc1ccc(C(=O)NCCc2cccc(Cl)c2)cn1,10.83%,29.79%
COc1ccccc1OCCNCc1c(C)nn(C)c1N(C)C,15.79%,-
CCOCC(=O)N1Cc2[nH]nc(COCC3CC3)c2C1.O=C(O)C(F)(F)F,-,-23.85%
Cc1ccc(NC2CCN(C(=O)CCc3c(C)noc3C)CC2)nn1,27.22%,13.08%
Cc1ccccc1-n1cnnc1SCCOCC1CCCO1 (stereo not drawn),1.446%,3.681%
CCOC(=O)CNC(=O)NCc1cc(C)n(-c2ccc(OC)cc2)c1C,18.08%,21.42%
O=C1CO[C@H]2CN(S(=O)(=O)c3ccccc3)C[C@H]2N1Cc1ccccn1,10.99%,-
Cc1ccc(CN2CCC3(CCC3NS(=O)(=O)c3ccccc3)CC2)o1 (stereo not drawn),11.96%,-
Cc1noc(C2CCN(C(=O)C3CCCO3)CC2)n1 (stereo not drawn),15.11%,2.418%
CCc1nc(C2CCCN2C(=O)c2cc(Cl)c[nH]2)no1 (stereo not drawn),15.9%,17.12%
CCC(C)(NCC(=O)OC)c1nccs1 (stereo not drawn),1.446%,1.78%
CC(C)N(Cc1ccc(C#N)cc1)Cc1nnsc1Cl,9.507%,32.27%
Cc1nccn1CCCN1CCC(c2nccn2CC2CCC2)CC1,15.87%,4.157%
CCN1CCN(c2ccc(F)cc2C(C)NCc2ccnn2C)CC1 (stereo not drawn),9.253%,7.402%
COC(=O)CNC(=O)c1cc(-c2ccccc2)nc2ncnn12,-9.181%,-3.097%
O=C(Nc1ccc(OC(F)F)cc1)N1CCC(c2nnc[nH]2)CC1,12.73%,4.947%
CN1CCc2c(C#N)c(NCC3CCCO3)n3cnnc3c2C1 (stereo not drawn),13.41%,-
CN(Cc1n[nH]c2c1CCCC2)c1cc(N2CCOCC2)nc(N)n1,12.32%,3.482%
CC(C)n1ccc(C(=O)OCC2CC(=O)N(Cc3ccccc3)C2)n1 (stereo not drawn),7.003%,-1.47%
Cn1cc(CN2CC[C@H]3C[C@H](c4nc(C5CC5)cs4)O[C@@H]3C2)cn1,10.24%,-
CC(C)N1CCCC2(CCN(Cc3nncn3C(C)C)C2)C1=O (stereo not drawn),0.6135%,-5.336%
CN(CCC(O)c1ccccc1)Cc1nc(-c2ccccc2)no1 (stereo not drawn),5.278%,28.98%
Cc1cc(Nc2ncccn2)nc(C2CCCN(CCO)C2)n1 (stereo not drawn),13.92%,17.06%
CN(C)CCNC(=O)c1cc2n(n1)CCN(C(=O)c1ccco1)C2,19.15%,13.07%
[H][C@@]12CN(Cc3cccc(O)c3)C[C@]1([H])N(CCCN1CCOCC1)C(=O)O2,-,-19.89%
Cc1cccnc1CCNCC1(O)CCCN(CC2CCCCC2)C1=O (stereo not drawn),-0.2725%,-24.2%
Cc1ccc(-c2nc(CC(=O)N3CCCC(NC(=O)C(C)C)C3)cs2)o1 (stereo not drawn),-0.2457%,11.47%
CN(C)CC(=O)N1CCC2(CCN(Cc3ccccn3)C2=O)C1 (stereo not drawn),12.45%,6.02%
Cc1cc(C(=O)N2CCc3c(CN(C)C(C)C)n[nH]c3C2)[nH]n1,11.66%,-5.038%
COC(=O)C(c1cc(F)ccc1F)N(C)C(=O)c1csnn1 (stereo not drawn),8.333%,-7.112%
CN(Cc1ccccc1)C(=O)CN1CCOC(Cn2cncn2)C1 (stereo not drawn),22.25%,-8.592%
O=C(Nc1ccccc1)C1=NOC2(CCCNC2)C1 (stereo not drawn),0%,-6.304%
Cc1cc2c(N)nc(=O)n(CC(=O)Nc3cccc(Cl)c3)c2s1,9.044%,36.53%
CN(C)c1cnnc(N2CCN(C(=O)Cc3ccccc3)CC2)c1,5.036%,1.237%
CCCN1CCC(NC(=O)c2csc(C)c2-c2ccccc2)CC1,8.591%,-5.866%
CC1CN(c2ncnc3ccccc23)CCO1 (stereo not drawn),6.793%,-0.1907%
Cc1cc2[nH]cc(C(=O)N3CCCCC3c3ccc(F)cc3)c(=O)n2n1 (stereo not drawn),8.939%,-8.978%
Cn1ncc(NCc2cccc(OCC(F)(F)F)c2)c(Cl)c1=O,1.445%,8.287%
CC(C)c1n[nH]c(C(=O)Nc2ccccn2)c1Br,18.33%,-0.4918%
Cc1ccc(C(=O)NCCNCC2CNc3ccnn3C2)cc1 (stereo not drawn),14.13%,5.517%
O=C(NC1CC1)[C@@H]1CCO[C@@H]2CCN(CCc3ccccc3)C[C@@H]21,2.87%,-
CC(CC(=O)Nc1ncn(CC(=O)N2CCCCCC2)n1)C1CC1 (stereo not drawn),10.87%,19.88%
[H][C@]12CCN(C(=O)COC)[C@@]1([H])CC[C@H](COCc1csc(C)n1)O2,-,8.781%

For reference, 7 entries once more:

Result for CCOC(=O)CNC(=O)NCc1cc(C)n(-c2ccc(OC)cc2)c1C was A: 18.08%; B: 21.42%.
Result for [H][C@@]12CCN(C(=O)C3CC(F)(F)C3)C[C@]1(COCC1CC1)CCO2 was B: -8.608%.
Result for Cc1cc(C(F)(F)F)nn1C(C)C(=O)Nc1ccncc1 (stereo not drawn) was A: 2.905%; B: -15.22%.
Result for COc1ccc(-c2n[nH]c(C)c2CC(=O)N2CCOCC2)cc1 was A: 13.35%; B: -0.9627%.
Result for O=C1CO[C@H]2CN(S(=O)(=O)c3ccccc3)C[C@H]2N1Cc1ccccn1 was A: 10.99%.
Result for CCC(C)(NCC(=O)OC)c1nccs1 (stereo not drawn) was A: 1.446%; B: 1.78%.
Result for O=C(O)C(F)(F)F.O=C(O)C(F)(F)F.[H][C@@]12OCCN(Cc3cc(C)on3)[C@@]1([H])CC[C@H]2OCc1csc(C)n1 was B: -10.4%.